Measured values taken from patent US20190316208A1.
These are yes or no findings as the source states them, for the method shown. Binding seen in cells or lysates may run through a third protein. Some results given as binding are weak or reduced against the parent protein; the word gives no strength.

Sequences of proteins named here, by UniProt entry; tags and fusion partners are left off. Residues count along the entry.
UniProt Q02248, residues 2-781: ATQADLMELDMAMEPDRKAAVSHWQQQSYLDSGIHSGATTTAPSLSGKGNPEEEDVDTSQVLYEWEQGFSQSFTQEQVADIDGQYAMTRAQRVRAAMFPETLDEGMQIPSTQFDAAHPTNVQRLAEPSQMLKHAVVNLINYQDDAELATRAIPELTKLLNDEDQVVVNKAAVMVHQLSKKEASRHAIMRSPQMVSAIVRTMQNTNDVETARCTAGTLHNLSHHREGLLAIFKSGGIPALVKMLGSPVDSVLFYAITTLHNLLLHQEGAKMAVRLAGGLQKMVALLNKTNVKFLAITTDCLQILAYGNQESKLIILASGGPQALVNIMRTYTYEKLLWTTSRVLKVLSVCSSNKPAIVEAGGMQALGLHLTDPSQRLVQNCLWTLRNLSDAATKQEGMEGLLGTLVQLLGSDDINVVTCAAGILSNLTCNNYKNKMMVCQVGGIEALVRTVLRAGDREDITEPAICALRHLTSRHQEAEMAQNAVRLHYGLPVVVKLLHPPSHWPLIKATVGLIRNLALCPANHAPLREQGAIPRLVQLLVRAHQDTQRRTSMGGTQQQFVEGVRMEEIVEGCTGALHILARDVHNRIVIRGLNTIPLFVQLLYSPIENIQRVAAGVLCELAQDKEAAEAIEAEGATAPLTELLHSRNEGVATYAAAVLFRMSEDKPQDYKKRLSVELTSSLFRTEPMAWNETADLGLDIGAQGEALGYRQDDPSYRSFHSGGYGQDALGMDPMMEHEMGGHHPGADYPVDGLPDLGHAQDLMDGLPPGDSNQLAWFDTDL
UniProt P37238: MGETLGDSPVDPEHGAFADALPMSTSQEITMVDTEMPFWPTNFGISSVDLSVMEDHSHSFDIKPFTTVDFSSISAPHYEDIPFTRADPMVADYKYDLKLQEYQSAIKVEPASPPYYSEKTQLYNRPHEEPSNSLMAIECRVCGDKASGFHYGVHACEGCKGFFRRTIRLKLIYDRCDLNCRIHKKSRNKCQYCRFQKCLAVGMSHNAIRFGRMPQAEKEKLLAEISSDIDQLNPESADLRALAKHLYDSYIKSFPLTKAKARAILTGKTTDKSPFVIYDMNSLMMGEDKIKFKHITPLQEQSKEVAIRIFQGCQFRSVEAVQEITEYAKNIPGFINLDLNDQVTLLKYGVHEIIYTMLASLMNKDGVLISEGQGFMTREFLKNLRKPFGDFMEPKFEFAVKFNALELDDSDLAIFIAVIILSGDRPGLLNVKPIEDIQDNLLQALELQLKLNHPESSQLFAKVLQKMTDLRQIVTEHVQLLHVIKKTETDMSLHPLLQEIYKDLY

Experiments:
β-catenin (mouse) [1] = target: β-catenin (mouse) (UniProt Q02248); assay: endogenous co-immunoprecipitation in primary DCs, restated in the discussion
β-catenin (mouse) [2] = target: β-catenin (mouse) (UniProt Q02248); assay: endogenous co-immunoprecipitation in primary DCs: β-catenin IP, PPAR-γ western blot

## peroxisome proliferator-activated receptor-γ (PPAR-γ) (from UniProt P37238 1-505)
β-catenin (mouse) [1]
  binding: binds
β-catenin (mouse) [2]
  binding: binds
